Results: patent publication US5783568A, “Methods for treating cancer and other cell proliferative diseases” (Sugen, Inc., priority 1994, dated 1998)

System: sFGFR (soluble extracellular domain of FGFR2 (bek))
Assay: Isothermal titration calorimetry, aFGF binding to sFGFR
Design: species or system human
Conditions: ITC, mean ± SD of three experiments
From the text: A plasmid encoding the extracellular, ligand-binding domain of human FGFR2 (residues 1-355) was constructed using standard oligonucleotide-directed mutagenesis (Amersham) to introduce a translational termination codon immediately prior to the beginning of the single transmembrane domain of the receptor (Dionne et al., 1990). BamHI and SacII restriction sites were introduced 3' to the new termination codon. An XbaI-SacII fragment was isolated from the replicative form (RF) of this M13 mutagenesis product, filled in using T4 DNA polymerase (Boehringer-Mannheim) and inserted into the SmaI site of the expression vector pCVN (Dionne et al., 1990). This expression vector, which contains both the neomycin resistance and the dihydrofolate reductase genes for selection and amplification, was transfected into CHO cells following published procedures. Wigler et al., 1979, Cell 16:777-785.
The binding of aFGF to sFGFR was studied using the technique of isothermal titration calorimetry (ITC). In this technique the heat liberated (or absorbed) upon binding is monitored as small aliquots of ligand are added sequentially to a solution of the receptor at known concentration, which is maintained at constant temperature. […]

Substance: aFGF: aFGF was expressed in E. coli and purified by binding to a heparin-sepharose column
- Stoichiometry n of aFGF binding to sFGFR (aFGF as the ligand molecule, no added heparin): 0.9±0.14
- AH of aFGF binding to sFGFR: -5.3 ± 2.0 kcal/mol
